Patent publication US12668600B2 (Kumquat Biosciences Inc., priority 2023, dated 2026)
pIC50: −log10 of the molar value. Some results were stated once for a whole list of compounds, not compound by compound.

By UniProt entry, the sequences of proteins in these tests, tags left out. Residues count along the entry.
UniProt P01116, 1-188 isoform P01116-2: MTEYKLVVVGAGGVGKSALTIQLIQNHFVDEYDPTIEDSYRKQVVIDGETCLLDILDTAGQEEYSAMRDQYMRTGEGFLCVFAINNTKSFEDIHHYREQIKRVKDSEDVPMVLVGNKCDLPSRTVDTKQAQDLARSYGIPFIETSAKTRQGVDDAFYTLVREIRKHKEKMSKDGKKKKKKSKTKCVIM
UniProt P01116, 1-188 isoform P01116-2 G12V: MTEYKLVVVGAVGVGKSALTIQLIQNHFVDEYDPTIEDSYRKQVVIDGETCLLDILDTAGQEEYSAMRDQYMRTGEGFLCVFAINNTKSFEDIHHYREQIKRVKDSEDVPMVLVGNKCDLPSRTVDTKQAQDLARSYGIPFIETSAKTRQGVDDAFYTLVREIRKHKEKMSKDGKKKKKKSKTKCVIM
UniProt P01116, 1-188 isoform P01116-2 G12D: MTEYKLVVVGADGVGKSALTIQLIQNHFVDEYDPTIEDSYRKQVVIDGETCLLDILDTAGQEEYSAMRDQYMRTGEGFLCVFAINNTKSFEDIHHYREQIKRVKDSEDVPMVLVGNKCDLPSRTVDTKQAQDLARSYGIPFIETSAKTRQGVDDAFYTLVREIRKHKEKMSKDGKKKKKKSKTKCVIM

Tests used:
Assay type in all cases: biochemical
KRAS WT = target: T1, KRAS WT (Homo sapiens, UniProt P01116); test: HTRF KRAS-SOS1 interaction assay, wildtype KRAS; settings: binned ≤2 μM / >2 μM, read-out: Inhibition of KRAS WT (IC50)
T1 construct: made in house; host or cells: E. coli, e.g. BL21 (DE3)
Description: (§1) This assay can be also used to assess a selective inhibition or reduction of signaling output of a mutant Ras protein relative to a wildtype, or relative to a different mutant Ras protein. For example, the equilibrium interaction of wildtype KRAS or K-Ras mutant (e.g., wildtype or a mutant thereof) with SOS1 (e.g., hSOS1) can be assessed as a proxy or an indication for the ability of a subject compound to bind and inhibit Ras protein. The HTRF assay detects from (i) a fluorescence resonance energy transfer (FRET) donor (e.g., antiGST-Europium) that is bound to GST-tagged K-Ras mutant to (ii) a FRET acceptor (e.g., anti-6His-XL665) bound to a His-tagged hSOS1.
(§2) The assay buffer can contain ˜5 mM HEPES pH 7.4, ˜150 mM NaCl, ˜1 mM DTT, 0.05% BSA and 0.0025% (v/v) Igepal. A Ras working solution is prepared in an assay buffer containing typically a suitable amount of the protein construct (e.g., GST-tagged K-Ras mutant) and the FRET donor (e.g., antiGST-Eu (K) from Cisbio, France). A SOS1 working solution is prepared in an assay buffer containing suitable amount of the protein construct (e.g., His-hSOS1) and the FRET acceptor (e.g., anti-6His-XL665 from Cisbio, France). A suitable amount of the protein construct will depend on the range of activity or range of IC50 values being detected or under investigation. For detecting an IC50 within a range of 500 nM, the protein constructs of the same range of molarity can be utilized.
(§3) A fixed volume of DMSO with or without test compound is transferred into a 384-well plate. Ras working solution is added to all wells of the test plate. SOS1 working solution is added to all wells except for those that are subsequently filled with inhibitor control solution. Upon incubation for about 10 minutes or longer, the fluorescence is measured with a M1000Pro plate reader (Tecan) using HTRF detection (excitation 337 nm, emission 1:620 nm, emission 2:665 nm). […] Signaling output measured in terms of IC50 values can be obtained and a ratio of IC50 against one mutant relative to another mutant can be calculated.

KRAS G12S = target: T2, KRAS G12S (Homo sapiens, UniProt P01116, G12S); test: HTRF KRAS-SOS1 interaction assay, KRAS G12S; settings: binned ≤2 μM / >2 μM, read-out: Inhibition of KRAS G12S (IC50)
T2 construct: made in house; host or cells: E. coli, e.g. BL21 (DE3)
Description: as §1, §2
(§4) A fixed volume of DMSO with or without test compound is transferred into a 384-well plate. Ras working solution is added to all wells of the test plate. SOS1 working solution is added to all wells except for those that are subsequently filled with inhibitor control solution. Upon incubation for about 10 minutes or longer, the fluorescence is measured with a M1000Pro plate reader (Tecan) using HTRF detection (excitation 337 nm, emission 1:620 nm, emission 2:665 nm). Compounds are tested in duplicate at different concentrations (for example, 10 μM, 2.5 μM, 0.63 μM, 0.16 μM, 0.04 μM, 0.01 μM test compound). The ratiometric data (i.e., emission 2 divided by emission 1) is used to calculate IC50 values against Ras using GraphPad Prism (GraphPad software). Signaling output measured in terms of IC50 values can be obtained and a ratio of IC50 against one mutant relative to another mutant can be calculated.

KRAS G12V = target: T3, KRAS G12V (Homo sapiens, UniProt P01116, G12V); test: HTRF KRAS-SOS1 interaction assay, KRAS G12V; settings: binned ≤2 μM / >2 μM, read-out: Inhibition of KRAS G12V (IC50)
T3 construct: made in house; host or cells: E. coli, e.g. BL21 (DE3)
Description: as §1, §2, §4

KRAS G12D = target: T4, KRAS G12D (Homo sapiens, UniProt P01116, G12D); test: HTRF KRAS-SOS1 interaction assay, KRAS G12D; settings: binned ≤2 μM / >2 μM, read-out: Inhibition of KRAS G12D (IC50)
T4 construct: made in house; host or cells: E. coli, e.g. BL21 (DE3)
Description: as §1
The assay buffer can contain ˜5 mM HEPES pH 7.4, ˜150 mM NaCl, ˜1 mM DTT, 0.05% BSA and 0.0025% (v/v) Igepal. […] A suitable amount of the protein construct will depend on the range of activity or range of IC50 values being detected or under investigation. […]
as §3, with “Ras working solution is added to all wells of the test plate. SOS1 working solution is added to all wells except for those that are subsequently filled with inhibitor control solution.” left out

pIC50 (KRAS WT) | pIC50 (KRAS G12S) | pIC50 (KRAS G12V) | pIC50 (KRAS G12D) | Compound
≥ 5.70 | – | – | – | C[C@@H]1CN(CC2(COc3nc4c5c(c(C(F)(F)F)c(-c6ccc(F)c7sc(N)c(C#N)c67)c(F)c5n3)OCCN4[C@H](C)c3cccnc3N)CC2)C[C@H](C)O1 [Compound 886, 2-amino-4-(4-((R)-1-(2-aminopyridin-3-yl)ethyl)-2-((1-(((2S,6R)-2,6-dimethylmorpholino)methyl)cyclopropyl)methoxy)-10-fluoro-8-(trifluoromethyl)-5,6-dihydro-4H-[1,4]oxazepino[5,6,7-de]quinazolin-9-yl)-7-fluorobenzo[b]thiophene-3-carbonitrile]
– | – | ≥ 5.70 | – | C[C@H](c1cccnc1N)N1CCOc2c(C(F)(F)F)c(-c3cc(F)c(F)c4sc(N)c(C#N)c34)c(F)c3nc(OC[C@@]45CCCN4C[C@H](F)C5)nc1c23 (single isomer, unassigned) [Compound 863]
≥ 5.70 | ≥ 5.70 | ≥ 5.70 | – | Cc1cnc(N)c([C@@H](C)N2CCOc3c(C(F)(F)F)c(-c4ccc(F)c5sc(N)c(C#N)c45)c(F)c4nc(OC[C@@]56CCCN5C[C@H](F)C6)nc2c34)n1 (single isomer, unassigned) [Compound 767]
– | ≥ 5.70 | ≥ 5.70 | – | N#Cc1c(N)sc2c(F)ccc(-c3c(C(F)(F)F)c4c5c(nc(OC[C@@]67CCCN6C[C@H](F)C7)nc5c3F)N([C@H](CCC3CCC3)c3cccnc3N)CCO4)c12 (single isomer, unassigned) [Compound 745]
– | ≥ 5.70 | – | – | N#Cc1c(N)sc2c(F)ccc(-c3c(C(F)(F)F)c4c5c(nc(OC[C@@]67CCCN6C[C@H](F)C7)nc5c3F)N([C@H](CC3CCOC3)c3cccnc3N)CCO4)c12 (single isomer, unassigned) [Compound 772]
– | ≥ 5.70 | – | – | CCO/N=C(\C)CCC[C@H](c1cccnc1N)N1CCOc2c(C(F)(F)F)c(-c3ccc(F)c4sc(N)c(C#N)c34)c(F)c3nc(OC[C@@]45CCCN4C[C@H](F)C5)nc1c23 (single isomer, unassigned) [Compound 859]
– | – | ≥ 5.70 | – | Cc1cnc(N)c([C@@H](C)N2CCOc3c(C(F)(F)F)c(-c4ccc(F)c5sc(N)c(C#N)c45)c(F)c4nc(OC[C@@]56CCCN5C[C@H](F)C6)nc2c34)c1 (single isomer, unassigned) [Compound 861]

Continued, compound first:

Compound | pIC50 (KRAS WT) | pIC50 (KRAS G12S) | pIC50 (KRAS G12V) | pIC50 (KRAS G12D)
CCO/N=C(\C)CCC[C@H](c1cccnc1N)N1CCOc2c(C(F)(F)F)c(-c3ccc(F)c4sc(N)c(C#N)c34)c(F)c3nc(OC[C@@]45CCCN4C[C@H](F)C5)nc1c23 (single isomer, unassigned) [Compound 720] | – | ≥ 5.70 | – | –
C=CC[C@H](c1cccnc1N)N1CCOc2c(C(F)(F)F)c(-c3ccc(F)c4sc(N)c(C#N)c34)c(F)c3nc(OC[C@@]45CCCN4C[C@H](F)C5)nc1c23 (single isomer, unassigned) [Compound 616] | – | – | – | ≥ 5.70
C=CC[C@H](c1cccnc1N)N1CCOc2c(C(F)(F)F)c(-c3ccc(F)c4sc(N)c(C#N)c34)c(F)c3nc(OC[C@@]45CCCN4C[C@H](F)C5)nc1c23 (single isomer, unassigned) [Compound 734] | – | ≥ 5.70 | – | –
N#Cc1c(N)sc2c(F)ccc(-c3c(C(F)(F)F)c4c5c(nc(OC[C@@]67CCCN6C[C@H](F)C7)nc5c3F)N([C@H](CCC3CC(F)(F)C3)c3cccnc3N)CCO4)c12 (single isomer, unassigned) [Compound 724] | ≥ 5.70 | ≥ 5.70 | ≥ 5.70 | –
N#Cc1c(N)sc2c(F)ccc(-c3c(C(F)(F)F)c4c5c(nc(OC[C@@]67CCCN6C[C@H](F)C7)nc5c3F)N([C@H](CC3CCOC3)c3cccnc3N)CCO4)c12 (single isomer, unassigned) [Compound 717] | – | ≥ 5.70 | – | –
